Measurements taken from patent US10639313B2, “Compound for inhibition of delta-5-desaturase (D5D) and treatment of cancer and inflammation” (NDSU Research Foundation, priority 2017, dated 2020).
For at least one compound, name, drawing or mass did not settle the structure.

Test system: Lewis Lung Carcinoma Cells (LLC)
Test: Lewis Lung Carcinoma primary tumor growth and metastatic lung tumor formation
Type: in vivo, C57/B6 mice
Conditions: Day 28; metastatic lung tumors counted in each mouse; vehicle 1, 2, 2, 3
Protocol: One million Lewis Lung Carcinoma Cells (LLC,), suspended in 50 μL of PBS, were implanted into front/hind flanks (0.5 million each) of C57/B6 mice. A total of twenty […] mice were divided to four groups: six in vehicle control, six in DGLA+iminodibenzyl combination, three in DGLA (oral), and five in iminodibenzyl (i.p.) group. Every day treatment regimen was started one-week after LLC cells implanted into mice blank. Primary tumor growth was monitored twice a week using a digital caliper as well as via ultrasound image system for treatment outcome. Tumor volume was calculated: […] Tumor Growth Reduction Rate (%, Table 8) in each experiment after 4-week treatment was used to assess their associated anti-tumor responses: […]

CCCCC/C=C\C/C=C\C/C=C\CCCCCCC(=O)O [DGLA, dihomo-γ-linolenic acid]
Lung Tumor(s) per mouse: 1, 1, 2
